Assay results taken from PubChem BioAssay AID493014 (National Center for Advancing Translational Sciences (NCATS), 2011).
The list shows a part of the results. Further columns of the screen follow, without active or inactive calls. Compounds called inactive in the main read-out are mostly missing here. Words in brackets tell the shape of the fitted curve; partial curves, single points and poor fits give uncertain potencies.

Test: qHTS Assay to Find Inhibitors of Chronic Active B-Cell Receptor Signaling
Conditions: ABC-DLBCL IkBa-CBG/CBR reporter, luminescence ratio (green luciferase fused to IkBa over red control in TMD8 lymphoma cells), 4 h
Outline: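 TMD8 human ABC-DLBCL cells with doxycycline-inducible IκBα–green luciferase fusion and unfused red luciferase, in 0.5% FBS medium; compounds up to 46 uM, 4 h at 37C. Green/red luminescence ratio, filter-overlap corrected, fitted to concentration-response curves.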

[1] = measured here: CBR red luminescence, cell number
[2] = measured here: IkBa-CBG green luminescence

COC(=O)[C@]1(C)N[C@H](CN(C)S(=O)(=O)c2ccc(C(C)(C)C)cc2)[C@@H]2C(=O)N(C)C(=O)[C@@H]21
AC50 [1]: 1.3 µM [rising, partial curve, poor fit]

CSc1nc(O)c(/C=C2\C=Nc3ccccc32)[nH]1
AC50 [1]: 18.4 µM [falling, single point]

CCN(CC)c1ccc(C(=O)n2cnc3ccccc32)cc1
AC50 [1]: 22.4 µM [falling, single point]

Cc1ccc(NC(=O)c2sc(Cl)nc2-c2ccccc2)cc1
AC50 [1]: 29.1 µM [falling, single point]

Clc1ccccc1-c1nc(-c2ccccc2)n[nH]1
AC50 [1]: 8.91 µM [falling, partial curve, poor fit]

CC(C)CCOc1ccc(C2CC(=O)N(C)C2=O)cc1 (configuration not stated)
AC50 [1]: 0.794 µM [rising, full curve, poor fit]

O=C(O)c1ccc(COc2c(F)c(F)c(F)c(F)c2F)o1
AC50 [1]: 23.1 µM [rising, single point]

CC1(C)CC(=O)C(/C=N/n2c(C(F)(F)F)nc3ccccc3c2=O)=C(O)C1
AC50 [1]: 18.4 µM [falling, single point]

CCN(C(=O)c1ccc2c(Cl)c3c(nc2c1)CCC3)c1cccc(C)c1
AC50 [1]: 7.31 µM [falling, single point]

Cc1cccc(C(=O)O/N=C/c2c(N3CCOCC3)n(C)c3ccccc23)c1
AC50 [1]: 3.98 µM [falling, partial curve, poor fit]

COc1n[nH]c(C(=O)Nc2nc3ccccc3s2)c1[N+](=O)[O-]
AC50 [1]: 3.16 µM [falling, full curve]

COc1ccc(-n2cccc2/C=C2\C(=N)N3N=C(C(C)C)SC3=NC2=O)cc1
AC50 [1]: 1.12 µM [rising, full curve, poor fit]

CC(Sc1nnnn1-c1ccc(Cl)cc1)C(=O)NCC(=O)Nc1ccc(F)c(F)c1F (configuration not stated)
AC50 [2]: 32.6 µM [rising, partial curve, poor fit]

Cc1cc(CN2CCN(CCC#N)CC2)c(O)c(C2(C)CCCCC2)c1
AC50 [1]: 9.2 µM [falling, partial curve, poor fit]

CC(=O)Nc1ccc2nc(NC(=O)COc3ccccc3)sc2c1
AC50 [1]: 0.501 µM [falling, full curve, poor fit]

Cn1cccc1C(=O)NCCc1ccccc1
AC50 [1]: 22.4 µM [falling, single point]

CC1(C(=O)OCC(=O)Nc2nc(-c3ccc(F)c(F)c3)cs2)CC1(Cl)Cl (configuration not stated)
AC50 [1]: 35.5 µM [falling, single point] | AC50 [2]: 28.2 µM [rising, partial curve, poor fit]

CCCCCn1c(CCC(=O)Oc2ccccc2OC)nc2c1c(=O)[nH]c(=O)n2CCCC
AC50 [1]: 1.46 µM [rising, partial curve, poor fit]

COC(=O)c1[nH]c2ccc(C)cc2c1NC(=O)Nc1ccc(OC)cc1
AC50 [1]: 13 µM [falling, partial curve, poor fit]

COc1ccccc1-c1nc(SCC(=O)Nc2ccccc2F)n[nH]1
AC50 [1]: 7.08 µM [falling, partial curve]

CCOc1ccc(-c2noc(-c3cccnc3)n2)cc1OCC
AC50 [1]: 0.447 µM [rising, full curve, poor fit]

COc1ccccc1NC(=O)Cn1c(C)cc(=O)c2cccc(OC)c21
AC50 [1]: 35.5 µM [falling, single point]

COc1ccc(/C(C)=N/NC(=S)NCc2ccco2)cc1
AC50 [2]: 29.1 µM [falling, single point]

O=C(Nc1nnc(-c2ccccc2)s1)c1cc(S(=O)(=O)N2CCOCC2)c(Cl)cc1Cl
AC50 [1]: 2.91 µM [rising, partial curve, poor fit]

CCc1nnc(NC(=O)CSc2nnc(CNc3cccc(C)c3)n2-c2ccccc2)s1
AC50 [1]: 10 µM [falling, partial curve, poor fit]

O=C(Cc1ccccc1)Nc1nnc(-c2ccccc2)o1
AC50 [1]: 35.5 µM [falling, single point]

CN(C)S(=O)(=O)c1cccc(C(=O)N(Cc2ccc(F)cc2)Cc2ccco2)c1
AC50 [1]: 3.16 µM [rising, partial curve, poor fit]

CN(C)c1ccc(P(=O)(COc2ccc([N+](=O)[O-])cc2)c2ccc(N(C)C)cc2)cc1
AC50 [1]: 5.62 µM [falling, single point]

C=CCNC(=O)CN(c1ccc(OC)cc1OC)S(C)(=O)=O
AC50 [1]: 6.51 µM [rising, single point]

COc1nc2ccccc2nc1N1CCN(Cc2ccc3c(c2)OCO3)CC1
AC50 [1]: 31.6 µM [rising, single point]

Cc1cc(C(=O)N/N=C/c2c[nH]c3ccccc23)cs1
AC50 [1]: 29.1 µM [falling, single point]

CN(CC(=O)Nc1ccc(F)cc1)C(=O)CSc1nccn1C
AC50 [1]: 16.4 µM [falling, partial curve, poor fit]

Cc1c(C(=O)C(=O)N2CC=C(c3ccccc3)CC2)c2ccccc2n1C
AC50 [1]: 23.1 µM [rising, single point] | AC50 [2]: 18.4 µM [falling, partial curve, poor fit]

COc1ccc(C(=O)N/N=C(\Cc2ncc[nH]2)c2ccccc2)cc1
AC50 [1]: 35.5 µM [falling, single point]

Cc1ccc(OC(=O)c2c(C)nn(-c3ccccc3)c2C)cc1
AC50 [1]: 1.78 µM [rising, partial curve, poor fit]

O=C(C1=C(c2ccccc2)C(=O)c2ccccc2C1=O)c1ccccc1
AC50 [1]: 4.11 µM [falling, partial curve, poor fit]

C/C(=C\C(=O)c1ccc(Br)cc1)NNC(=O)c1ccc(O)cc1
AC50 [1]: 0.316 µM [falling, full curve]

O=S(=O)(c1ccc(NC(=S)Nc2ccc3c(c2)OCO3)cc1)N1CCOCC1
AC50 [1]: 10.3 µM [rising, partial curve, poor fit]

Cc1ccccc1N=Nc1c(C)[nH]n(C(N)=S)c1=O
AC50 [1]: 13 µM [rising, partial curve, poor fit] | AC50 [2]: 1.46 µM [falling, full curve]

O=C(CNC(=O)Cc1ccccc1)NCC(=O)OCC(=O)c1cccc2ccccc12
AC50 [1]: 4.11 µM [rising, partial curve, poor fit]

CCOC(=O)c1c(NC(=O)CSc2ncn[nH]2)sc(C)c1C
AC50 [1]: 3.26 µM [falling, full curve, poor fit]

COc1cc(O)c(C(CC(=O)N2CCCC(C)C2)c2ccc3c(c2)OCO3)c(OC)c1 (configuration not stated)
AC50 [1]: 20 µM [rising, single point]

O=C(/C=C/c1ccc(S(=O)(=O)N2CCOCC2)cc1)NCc1ccccc1
AC50 [1]: 0.092 µM [rising, full curve, poor fit]

COc1ccccc1NC(=O)N1CCN(c2nnc(C)c3c(C)n(-c4ccccc4)nc23)CC1
AC50 [1]: 10 µM [falling, partial curve, poor fit]

CCOC(=O)N1CCC(N(C(=O)Nc2ccc(Cl)c(Cl)c2)C(C)CC)CC1 (configuration not stated)
AC50 [1]: 4.11 µM [rising, full curve, poor fit]

CN(C)c1ccc(NS(=O)(=O)c2ccc(-c3csnn3)cc2)cc1
AC50 [1]: 3.98 µM [falling, partial curve]

CC(NC(=O)/C(C#N)=C/c1ccc(Cl)c([N+](=O)[O-])c1)c1ccccc1 (configuration not stated)
AC50 [1]: 20.6 µM [falling, partial curve] | AC50 [2]: 25.9 µM [rising, partial curve, poor fit]

COC(=O)c1c(NC(=O)C(=O)NCC2CCCO2)sc2c1CC(C)(C)OC2 (configuration not stated)
AC50 [1]: 5.62 µM [rising, single point]

Cc1cc(=O)oc2cc(Oc3ccc(C(N)=O)cc3[N+](=O)[O-])ccc12
AC50 [1]: 35.5 µM [falling, partial curve, poor fit]

CCNC(=S)N/N=C(\C)c1ccc2ccccc2c1OC(F)F
AC50 [1]: 35.5 µM [falling, single point] | AC50 [2]: 25.1 µM [falling, single point]

CC(=O)c1sc(Nc2nc3ccc(F)cc3s2)nc1C
AC50 [2]: 22.4 µM [falling, single point]

O=C(CCN1C(=O)S/C(=C\c2ccccc2)C1=O)Nc1ccc(O)cc1C(=O)O
AC50 [1]: 12.6 µM [falling, single point]

Cc1cccc(-n2cnc(C(=O)Nc3cccnc3)c2)n1
AC50 [1]: 1.26 µM [falling, full curve]

COc1ccc(CN(C)CC(=O)Nc2cccc(S(=O)(=O)N3CCCC3)c2)cc1F
AC50 [1]: 29.1 µM [falling, single point]

C/C(CC(=O)Nc1ccc(Cl)cc1Cl)=N\NC(=O)C(=O)NCCO
AC50 [1]: 16.4 µM [falling, partial curve]

CC(=O)c1sc(NC(=O)CN2C(=O)NC3(CCCC3)C2=O)nc1-c1ccccc1
AC50 [1]: 18.4 µM [falling, partial curve, poor fit]

COc1ccc(C(=O)C[n+]2ccc(N)c(C)c2C)cc1
AC50 [1]: 35.5 µM [rising, single point]

Oc1c(Cl)cc(Cl)c2cccnc12
AC50 [1]: 6.31 µM [rising, single point] | AC50 [2]: 22.4 µM [falling, partial curve, poor fit]

CCc1ccc(N2CC(C(=O)NCc3ccc4c(c3)OCO4)CC2=O)cc1 (configuration not stated)
AC50 [1]: 28.2 µM [falling, single point]

Cc1cccc(-n2nc(C)c3c2NC2=C(C(=O)CCC2)C3c2ccccn2)c1 (configuration not stated)
AC50 [1]: 35.5 µM [falling, single point]

c1ccc(-n2c3ccccc3c3ccccc32)cc1
AC50 [1]: 14.1 µM [rising, single point]
